Measured values: patent CN112625131A
These are yes or no findings as the source states them, for the method shown. Some results given as binding are weak or reduced against the parent protein; the word gives no strength.

The chains behind the UniProt entries cited, without tags or fusion partners. Residues count along the entry.
UniProt P08581, residues 25-932: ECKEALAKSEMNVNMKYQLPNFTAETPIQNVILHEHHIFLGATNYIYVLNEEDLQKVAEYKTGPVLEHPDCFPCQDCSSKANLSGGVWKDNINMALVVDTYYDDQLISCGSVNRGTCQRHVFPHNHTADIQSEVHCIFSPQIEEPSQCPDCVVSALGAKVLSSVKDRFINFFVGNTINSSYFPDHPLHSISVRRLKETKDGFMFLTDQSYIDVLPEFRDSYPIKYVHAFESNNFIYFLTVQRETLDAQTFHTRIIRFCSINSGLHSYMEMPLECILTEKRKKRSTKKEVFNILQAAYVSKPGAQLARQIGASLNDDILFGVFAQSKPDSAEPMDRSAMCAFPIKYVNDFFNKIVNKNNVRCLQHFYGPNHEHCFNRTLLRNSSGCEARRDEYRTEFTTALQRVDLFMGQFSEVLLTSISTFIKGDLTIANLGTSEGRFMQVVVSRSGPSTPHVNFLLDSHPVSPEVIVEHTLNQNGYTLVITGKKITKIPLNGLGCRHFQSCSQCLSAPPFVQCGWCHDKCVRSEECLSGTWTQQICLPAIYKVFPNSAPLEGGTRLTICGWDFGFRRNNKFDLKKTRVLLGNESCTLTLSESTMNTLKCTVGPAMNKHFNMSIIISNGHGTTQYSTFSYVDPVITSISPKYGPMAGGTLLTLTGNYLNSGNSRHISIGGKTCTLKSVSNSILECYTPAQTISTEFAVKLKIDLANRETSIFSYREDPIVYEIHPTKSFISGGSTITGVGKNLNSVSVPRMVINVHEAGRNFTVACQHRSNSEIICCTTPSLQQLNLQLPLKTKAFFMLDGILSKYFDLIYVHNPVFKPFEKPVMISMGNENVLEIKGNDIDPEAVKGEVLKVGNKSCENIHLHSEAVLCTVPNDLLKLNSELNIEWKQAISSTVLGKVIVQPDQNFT

B1: 1D20 scFv clone (phage-displayed single-chain antibody) (scFv)
scFv: DIQMTQTTSSLSASLGDRVTISCRASQDISNYLNWYQQKPDGTVKLLIYYTSRLHSGVPSRFSGSGSGTDYSLTISNLEQEDIATYFCQQGNTLFTFGSGTKLEIKSSGGGGSGGGGGGSSRSSEVQLQQSGDDLVKPGASVKLSCKASGYSFTGYFMDWVMQSHGKSLEWIGRINPNNGDTFYNQKFKGKATLTVDKSSSTAHMELRSLASEDSAVYYCARMKLIGSYMDYWGQGTSVTVSS
B2: 3C36 scFv clone (phage-displayed single-chain antibody) (scFv)
scFv: DIVLTQSPGTLSVTPGDSVSLSCRASQSISSYLHWYQQKSHESPRLLIKYASQSISGIPSRFSGSGSGTDFTLSINSVETEDFGMYFCQQSKSWPFTFGSGTKLEIKSSGGGGSGGGGGGSSRSSEVQLQQSGPELVKPGASVKLSCKASGYTFTSYWIHWVKQRPGQGLEWIGEINPSNGHTYYTEKFKIKATMTLDKSSSTAYMQLSSLTSEDSAVYFCGRYPKGGYFDVWGAGTTVTVSS

Target: HIS-tagged human c-Met extracellular antigen (NP_000236) (Met 1-Thr 932) (human) (UniProt P08581)
Experiment: phage ELISA on coated c-Met antigen

Binder	binding
B1	binds
B2	binds
